Assay results: PMC7652397
Results are given in words; binding and its absence hold for the method and conditions named. Binding seen in cells or lysates may run through a third protein. Some results given as binding are weak or reduced against the parent protein; the word gives no strength.

By UniProt entry, the sequences of proteins in these tests, tags left out.
UniProt Q9ESK9: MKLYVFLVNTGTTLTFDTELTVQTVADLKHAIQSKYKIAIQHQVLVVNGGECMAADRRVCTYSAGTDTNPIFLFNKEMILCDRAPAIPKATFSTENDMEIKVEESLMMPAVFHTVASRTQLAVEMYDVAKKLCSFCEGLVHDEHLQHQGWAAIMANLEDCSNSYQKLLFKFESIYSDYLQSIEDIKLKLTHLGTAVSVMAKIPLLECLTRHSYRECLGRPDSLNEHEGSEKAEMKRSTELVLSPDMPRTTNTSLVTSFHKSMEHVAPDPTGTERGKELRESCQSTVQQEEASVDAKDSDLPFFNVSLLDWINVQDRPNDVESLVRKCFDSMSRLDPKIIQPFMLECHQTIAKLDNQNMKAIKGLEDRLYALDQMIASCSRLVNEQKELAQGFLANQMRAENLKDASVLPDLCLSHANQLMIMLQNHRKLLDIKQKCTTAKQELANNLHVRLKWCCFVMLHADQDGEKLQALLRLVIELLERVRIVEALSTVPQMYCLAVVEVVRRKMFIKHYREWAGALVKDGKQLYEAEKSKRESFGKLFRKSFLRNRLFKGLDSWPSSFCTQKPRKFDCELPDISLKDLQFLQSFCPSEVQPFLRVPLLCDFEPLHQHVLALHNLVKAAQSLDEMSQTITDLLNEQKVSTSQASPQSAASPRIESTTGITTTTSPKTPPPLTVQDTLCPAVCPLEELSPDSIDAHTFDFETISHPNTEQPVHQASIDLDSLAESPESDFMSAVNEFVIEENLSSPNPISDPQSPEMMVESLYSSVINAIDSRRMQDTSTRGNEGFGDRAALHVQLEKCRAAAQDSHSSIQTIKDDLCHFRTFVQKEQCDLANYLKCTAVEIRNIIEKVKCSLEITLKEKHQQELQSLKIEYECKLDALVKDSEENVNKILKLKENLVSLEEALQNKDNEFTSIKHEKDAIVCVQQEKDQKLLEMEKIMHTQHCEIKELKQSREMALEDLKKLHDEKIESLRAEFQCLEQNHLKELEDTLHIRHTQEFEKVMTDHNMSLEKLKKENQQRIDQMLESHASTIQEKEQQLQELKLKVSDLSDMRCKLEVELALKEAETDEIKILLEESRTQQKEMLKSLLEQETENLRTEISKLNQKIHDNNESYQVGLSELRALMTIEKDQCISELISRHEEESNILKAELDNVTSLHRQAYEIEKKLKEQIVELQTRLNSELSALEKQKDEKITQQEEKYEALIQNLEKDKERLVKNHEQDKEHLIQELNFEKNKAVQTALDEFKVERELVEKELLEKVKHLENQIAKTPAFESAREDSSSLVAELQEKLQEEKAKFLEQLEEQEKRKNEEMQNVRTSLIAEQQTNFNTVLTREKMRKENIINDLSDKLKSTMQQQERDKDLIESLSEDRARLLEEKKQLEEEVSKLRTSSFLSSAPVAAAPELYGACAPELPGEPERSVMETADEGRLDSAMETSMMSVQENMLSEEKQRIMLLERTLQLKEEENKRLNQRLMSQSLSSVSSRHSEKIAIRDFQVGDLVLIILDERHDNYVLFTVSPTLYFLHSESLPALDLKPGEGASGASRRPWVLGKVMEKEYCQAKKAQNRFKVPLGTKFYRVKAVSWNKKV

T1: Unc-51 like autophagy-activating kinase 1 (ULK1) (mouse (endogenous in MEF)) (UniProt O70405)
T1 sequence: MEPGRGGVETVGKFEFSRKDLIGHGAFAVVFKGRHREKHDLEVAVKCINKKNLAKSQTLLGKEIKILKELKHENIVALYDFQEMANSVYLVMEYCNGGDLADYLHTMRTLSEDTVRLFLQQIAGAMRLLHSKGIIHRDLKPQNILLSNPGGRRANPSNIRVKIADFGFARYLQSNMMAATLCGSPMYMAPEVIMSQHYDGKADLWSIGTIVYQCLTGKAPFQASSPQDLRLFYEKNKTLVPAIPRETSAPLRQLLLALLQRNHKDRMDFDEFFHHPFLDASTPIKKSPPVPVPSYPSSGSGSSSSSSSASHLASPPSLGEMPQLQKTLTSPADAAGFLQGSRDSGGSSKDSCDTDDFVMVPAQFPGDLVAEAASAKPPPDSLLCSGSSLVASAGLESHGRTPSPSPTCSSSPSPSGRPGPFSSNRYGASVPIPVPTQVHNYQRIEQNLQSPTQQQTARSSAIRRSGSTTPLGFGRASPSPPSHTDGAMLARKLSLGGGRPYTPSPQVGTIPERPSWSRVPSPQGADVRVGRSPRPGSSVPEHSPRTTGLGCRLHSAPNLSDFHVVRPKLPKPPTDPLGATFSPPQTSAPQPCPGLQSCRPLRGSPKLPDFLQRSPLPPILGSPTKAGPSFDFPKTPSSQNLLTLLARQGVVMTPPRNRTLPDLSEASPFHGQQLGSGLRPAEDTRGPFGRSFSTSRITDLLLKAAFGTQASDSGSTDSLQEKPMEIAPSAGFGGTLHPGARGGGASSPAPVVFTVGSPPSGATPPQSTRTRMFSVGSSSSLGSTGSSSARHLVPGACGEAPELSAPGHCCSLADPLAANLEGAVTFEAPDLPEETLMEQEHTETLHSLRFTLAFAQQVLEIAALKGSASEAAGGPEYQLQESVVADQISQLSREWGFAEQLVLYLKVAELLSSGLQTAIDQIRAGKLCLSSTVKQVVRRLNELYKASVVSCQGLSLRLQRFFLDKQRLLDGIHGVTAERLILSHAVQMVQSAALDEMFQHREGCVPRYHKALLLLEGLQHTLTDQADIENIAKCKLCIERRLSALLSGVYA


Biological target: T1, Unc-51 like autophagy-activating kinase 1 (ULK1) (mouse (endogenous in MEF))
Test: co-IP; 1 mg of total lysate protein with 7 ug ULK1 antibody (DU 34016), 60 min at 4°C, Protein A/G resin; lysis buffer 50 mM Hepes pH 7.4, 150 mM NaCl, 1 mM EDTA, 10% glycerol, 0.5% NP-40; cells in Fed or EBSS conditions treated with 2 uM MRT68921, 1 uM ULK-101, 5 uM SBI0206965 or DMSO for 1 h; blots for FIP200 and ATG13

| Molecule | binding |
| --- | --- |
| FAK family interacting protein of 200 kD (FIP200) (from UniProt Q9ESK9 1-1588) | binds |
| Autophagy related (ATG) 13 (ATG13) (protein, UniProt Q91YI1 1-516) METELSSQDRKDLDKFIKFFALKTVQVIVQARLGEKICTRSSSSPTGSDWFNLAIKDIPEVTHEAKKALSGQLPAVGRSMCVEISLKTSEGDSMELEIWCLEMNEKCDKEIKVSYTVYNRLSLLLKSLLAITRVTPAYRLSRKQGHEYVILYRIYFGEVQLNGLGEGFQTVRVGTVGTPVGTLTLSCAYRINLAFMSTRQFERTPPIMGIIIDHFVDRPYPSSSPMHPCNYRTAEDAGVAYPSVEDSQEVCTTSFSTSPPSQLSSSRLSYQPAVLGLGSADLAYPVVFTAGLNTTHAHQLMVPGKEGGVTLAPSHPTHGAQADPERLVMHMPSDGTHCAATPSSSEDTETVSNSSEGRASPHDILETIFVRKVGAFVNKPINQVTVTSLDIPFAMFAPKNLELEDADPMVNPPESPETTSPLHGSLHSDGSSGGSGGSTHDDFVMIDFKPAFSKDDILPMDLGTFYREFQNPPQLSSLSIDFGAQSMAEDLDSLPEKLAVHEKNVREFDAFVETLQ | binds |
